The nature of this experiment: qHTS Assay to Find Inhibitors of Chronic Active B-Cell Receptor Signaling. The following applies: ABC-DLBCL IkBa-CBG/CBR reporter, luminescence ratio (green luciferase fused to IkBa over red control in TMD8 lymphoma cells), 4 h. In short, it runs like this: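 Doxycycline induced both beetle luciferases in TMD8 lymphoma cells; IKK-driven degradation limits the IkappaBalpha-fused green signal, while red luminescence normalises for cell number and nonspecific effects. Compounds tested up to 46 uM, 4 hrs.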
Background: qHTS replaces the single test concentration by a dilution series.

The mark [1] stands for this setting: measured here: CBR red luminescence, cell number.
Setting [2] is: measured here: IkBa-CBG green luminescence.

Several values for one entry are separate records, joined by “and”; a condition that tells them apart may be missing. Identical values can stand only once. The list shows a part of the results. The main result of the screen is listed elsewhere. These columns were measured beside it and carry no call. Most of these compounds were active or inconclusive in the main read-out, so they are no random draw. Potencies come from curve fits of mixed quality, noted in brackets.

For `O=C(COc1cc2oc(=O)c3c(c2cc1Cl)CCC3)NCCCn1ccnc1`, the AC50 under setting [1] was 2.51 µM [rising, partial curve, poor fit].

With `CCNC(=S)NNC(=O)c1cc(-c2cccc(C)c2)nc2ccccc12`, the AC50 under setting [2] is 35.5 µM [rising, partial curve, poor fit].

On to `COc1cc2c(cc1NC(=O)COC(=O)/C=C/c1ccc([N+](=O)[O-])cc1)oc1ccccc12`, for which the AC50 under setting [1] is 3.16 µM [falling, single point].

Take `CSc1nc(Cc2ccccc2)nc2ccccc12`: the AC50 under setting [1] is 35.5 µM [rising, single point].

Turning to `O=C(c1ccc(Cl)cc1)N1CCN(c2ccnc3cc(Cl)ccc23)CC1`, the AC50 under setting [1] is 35.5 µM [falling, partial curve, poor fit].

For `O=C(O)CCSc1nnc(COc2cccc3ccccc23)n1-c1cccc(Cl)c1`, the AC50 under setting [1] is 11.2 µM [falling, partial curve, poor fit].

In the case of `OC(c1cc(C(F)(F)F)nc2c(Cl)cc(Cl)cc12)C1CCCCN1` (stereo not given), the AC50 under setting [1] is 5.01 µM [falling, partial curve].

As to `O=C(NCc1ccco1)c1c(F)c(F)c(F)c(C(=O)NCc2ccco2)c1F`, the AC50 under setting [1] was 12.6 µM [falling, single point].

With `Cn1c(=O)c2c(nc(NN=C3CCCCC3)n2C)n(C)c1=O`, the AC50 under setting [1] was 8.91 µM [falling, partial curve, poor fit].

`Cc1ccc(NCc2nnc(SCC(=O)N(Cc3ccccc3)C(C)(C)C)o2)c(C)c1`: the AC50 under setting [1] was 20.6 µM [falling, partial curve, poor fit].

With `CCOC(=O)C1CCN(Cc2cc(=O)oc3c(C)c(C)ccc23)CC1`, the concentration at half-maximal activity (AC50) under setting [1] was 11.2 µM [falling, partial curve, poor fit].

As for `COc1ccc(C(=O)Nc2nc3ccc4nc(C)sc4c3s2)cc1`, under setting [1], the AC50 is 0.206 µM [falling, full curve, poor fit].

Consider `CCC(C(=O)O/N=C(\N)c1ccc(C)cc1)c1ccccc1` (stereo not given), for which the AC50 under setting [1] was 0.461 µM [rising, full curve, poor fit].

`Cc1ccc(C(=O)NN=C2CCCCCC2)s1`: under setting [1], the AC50 was 8.91 µM [falling, partial curve, poor fit].

With `O=C(O)CC/C(=N\NC(=O)c1ccc(F)cc1)c1ccc(Br)cc1`, the AC50 under setting [1] was 15.8 µM [falling, partial curve, poor fit].

Take `COc1ccc(/C=N/NC(=O)c2ccco2)cc1OCc1ccccc1`: under setting [1], the AC50 is 5.01 µM [falling, partial curve, poor fit].

In the case of `COc1cccc(-c2nnc(-c3ccc(C)o3)o2)c1`, the AC50 under setting [1] is 2.06 µM [falling, single point].

`CN(C)c1ccc(N=Cc2ccco2)cc1`: the AC50 under setting [1] was 3.16 µM [falling, full curve, poor fit].

In the case of `CC1CCCc2sc3nc(NCc4ccco4)n4ncnc4c3c21` (stereo not given), under setting [1], the AC50 was 29.1 µM [rising, single point].

Turning to `Cc1cccc(C(=O)Nc2ccccc2NC(=O)c2cccc(C)c2)c1`, the AC50 under setting [1] was 12.6 µM [falling, partial curve, poor fit].

As to `CC(=O)c1ccc(S(=O)(=O)N2CCNC(=O)C2)cc1`, the AC50 under setting [1] was 0.092 µM [rising, full curve, poor fit].

For the compound `CCCCCCCN1C2=NCCCN2c2ccccc21`, the AC50 under setting [1] is 14.1 µM [falling, single point].

Regarding `Nc1cc(=O)[nH]c(SCC(=O)Nc2ccc(Br)cc2)n1`, the AC50 under setting [1] is 29.1 µM [falling, single point].

As to `CC(=O)Nc1ccc(/C(C)=N/NC(=O)c2ccccc2Cl)cc1`, under setting [1], the AC50 is 20.6 µM [falling, partial curve, poor fit].

Consider `Cc1ccc(C(=O)OCC(=O)NCc2ccco2)s1`, for which the AC50 under setting [1] is 22.4 µM [falling, single point].

As for `CC(=O)Nc1cc(O)cc(O)c1`, the AC50 under setting [1] was 35.5 µM [rising, single point].

Consider `CN1CCN(C(=O)CCCN2C(=O)/C(=C/c3ccccc3)SC2=S)CC1`, for which the AC50 under setting [1] is 12.6 µM [falling, partial curve].

As to `Fc1ccc(-n2ncc3c(N4CCC(Cc5ccccc5)CC4)ncnc32)cc1`, the AC50 under setting [1] is 2 µM [falling, partial curve, poor fit].

Turning to `CC(=O)c1ccc(N2C(=O)N(Cc3ccccc3C#N)c3ccccc3S2(=O)=O)cc1`, the AC50 under setting [1] was 39.8 µM [falling, partial curve, poor fit].

As to `CC1C(=O)Nc2ccc(S(=O)(=O)N3CCN(c4cccc(Cl)c4)CC3)cc2NC1=O` (stereo not given), the AC50 under setting [1] is 35.5 µM [falling, single point].

Consider `CCOc1cccc2cc(-c3cn4cc(C)ccc4n3)c(=O)oc12`, for which the AC50 under setting [1] is 1.41 µM [falling, full curve].

`Cc1cc(S(=O)(=O)N2CCN(c3c(C)cccc3C)CC2)ccc1F`: the AC50 under setting [1] is 29.1 µM [rising, partial curve, poor fit].

For `O=c1oc2cc(O)ccc2c2oc3cc(O)ccc3c12`, the AC50 under setting [2] is 6.51 µM [rising, partial curve].

Regarding `CCOc1ccccc1NC(=S)N1CCN(c2nc(-c3ccc(F)cc3)cs2)CC1`, the AC50 under setting [1] is 35.5 µM [falling, partial curve, poor fit].

As for `c1ccc(-n2ncc3c(NCC4CCCO4)ncnc32)cc1` (stereo not given), the AC50 under setting [1] was 11.2 µM [falling, partial curve].

With `Cc1ccc(-c2nc(CN3CCCCC3)cc(CN3CCCCC3)c2O)cc1`, under setting [1], the AC50 was 15.8 µM [falling, partial curve].

Turning to `COc1ccc(Cn2nc(-c3ccccc3)c(N3CCCCC3)cc2=O)cc1`, under setting [1], the AC50 was 5.62 µM [rising, partial curve, poor fit].

In the case of `Cc1cccc(CS(=O)(=O)Cc2ccc(C(=O)NCc3cccnc3)o2)c1`, the AC50 under setting [1] is 0.103 µM [falling, full curve, poor fit].

Turning to `COc1cccc(CC2CC(=O)N(CCc3ccc4c(c3)OCO4)C2=O)c1` (stereo not given), the AC50 under setting [1] was 32.6 µM [falling, single point].

Consider `COc1ccccc1N/N=C1\COC(C)(C)CC1=O`, for which the concentration at half-maximal activity (AC50) under setting [1] was 0.501 µM [rising, full curve].

`Cc1ccc(NC(=O)NCC2CC2(Cl)Cl)cc1` (stereo not given): the AC50 under setting [1] is 2.24 µM [rising, partial curve, poor fit].

As to `COc1ccc(-n2nnnc2CNC(=O)C(=O)c2c(C)[nH]c3ccccc23)cc1`, the concentration at half-maximal activity (AC50) under setting [1] was 0.651 µM [falling, full curve, poor fit].

On to `COCc1c(C(=O)OCC(=O)c2c(N)n(CC(C)C)c(=O)n(C)c2=O)oc2ccccc12`, for which the AC50 under setting [1] is 22.4 µM [falling, single point].

With `COc1ccccc1-c1nc(SCc2ccccn2)n[nH]1`, the AC50 under setting [1] is 0.708 µM [falling, full curve].

As for `COc1ccc(C)cc1NC(=O)CSc1nnc(COc2ccccc2)n1Cc1ccco1`, the AC50 under setting [1] was 25.1 µM [falling, single point].

Consider `Cc1ccc(O)c(CNc2cccc(C)n2)c1`, for which the half-maximal activity concentration (AC50) under setting [1] was 0.1 µM [rising, full curve, poor fit].

Turning to `O=C(c1cccc(Br)c1)c1coc2ccc(O)cc12`, the AC50 under setting [1] was 6.51 µM [rising, single point].

Turning to `O=C(COC(=O)c1ccc(Cl)s1)c1ccc[nH]1`, under setting [1], the AC50 is 0.282 µM [rising, full curve, poor fit].

For the compound `COC(=O)c1ccc(NC(=S)NNC(=O)CC(C)C)cc1`, under setting [1], the concentration at half-maximal activity (AC50) is 7.31 µM [falling, partial curve].

For the compound `CCCC(=O)Nc1ccc(C(=O)n2ccc(C)n2)cc1`, the AC50 under setting [1] is 12.6 µM [rising, partial curve, poor fit].

On to `CCOc1cc(N2CCOCC2)c(OCC)cc1NC(=O)CN1CCC(Cc2ccccc2)CC1`, for which the concentration at half-maximal activity (AC50) under setting [1] is 0.82 µM [rising, full curve, poor fit].

For `O=C(Nc1cccc(Cl)c1)c1cnn2cccnc12`, the AC50 under setting [1] is 14.6 µM [falling, single point].

With `Cc1oc(CC(C)C)cc1C(=O)Nc1cccc2ccccc12`, the half-maximal activity concentration (AC50) under setting [1] was 5.01 µM [falling, full curve, poor fit].

With `CC1CCC(C(C)C)C(OC(=O)Cn2c(-c3ccc(Br)cc3)[n+](C)c3ccccc32)C1` (stereo not given), the AC50 under setting [1] was 22.4 µM [falling, single point] and 17.8 µM [falling, partial curve, poor fit].

In the case of `Cc1oc2c(c(C)cc3oc(=O)c(CC(=O)NCC(=O)NCC(=O)O)c(C)c32)c1C`, the AC50 under setting [1] was 10 µM [rising, single point].

`CCN(CC)C(=O)CSc1nc2ccccc2n1CC(=O)N1CCN(c2ccccc2OC)CC1`: the AC50 under setting [1] is 29.1 µM [rising, single point].

Turning to `O=C(Cn1nc2n(c1=O)-c1ccccc1SC2)N/N=C/c1ccncc1`, under setting [1], the AC50 was 22.4 µM [rising, single point].

In the case of `O=S(=O)(Nc1nc2ccccc2nc1NCCO)c1cccc(Cl)c1`, the AC50 under setting [1] was 0.164 µM [falling, full curve, poor fit].

For `COc1cc(/C=C(\C#N)C(=O)N2CCCCC2)ccc1O`, the AC50 under setting [1] is 11.2 µM [rising, partial curve, poor fit].

`O=C(OCCCc1cc2ccccc2c(=O)o1)c1ccccc1C(F)(F)F`: under setting [1], the AC50 was 7.31 µM [rising, partial curve, poor fit].

As to `CC1=NN(c2ccc(Cl)c(C(=O)O)c2)C(=O)C1`, the AC50 under setting [1] was 20.6 µM [falling, single point].

As to `CCOC(=O)c1sc(-c2ccccc2)cc1NC(=O)Nc1ccccc1`, the AC50 under setting [1] is 8.2 µM [falling, partial curve].

`CC1Oc2ccccc2C=C1/C=C1/SC(N2CCOCC2)=NC1=O` (stereo not given): the AC50 under setting [1] was 11.2 µM [falling, partial curve].

On to `Cc1ccc(/C=N/NC(=O)c2ccc(Cn3cc([N+](=O)[O-])cn3)o2)cc1`, for which, under setting [1], the AC50 was 2.31 µM [falling, full curve, poor fit].

Take `Cn1cccc1C(=O)NCC(c1ccc(F)cc1)N1CCOCC1` (stereo not given): under setting [1], the AC50 was 0.562 µM [rising, partial curve, poor fit].

In general, AC50 refers to the concentration at which the activity in the assay is half-maximal.
